# Measured values as given in PubChem BioAssay AID504834 (National Center for Advancing Translational Sciences (NCATS), 2011).
# About 22,000 (6.9%) of roughly 320,000 compounds were called active. Inconclusive results, whose numbers are uncertain, are shown with a selection of clear calls. The call rests on the fitted dose curve; in most records, active means well fitted inhibition curve with a large enough effect; inconclusive means small, poorly fitted or top-dose-only effect, or another doubt; inactive means no such curve, though single readings can be large or run the other way. Where the call is inconclusive, the potency comes from a doubtful curve fit.
# Test: Primary qHTS for delayed death inhibitors of the malarial parasite plastid, 96 hour incubation
# Details: P. falciparum luciferase reporter growth; series mostly up to 28.7 µM; activity change, negative = inhibition: at the top concentration
# How it was run: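 Plates of compound plus infected erythrocytes (2% hematocrit, 0.05% parasitemia final) incubate 96 hours, 37 C, 5% CO2. Detection reagent added; reduced luminescence from the parasites' luciferase reporter flags inhibition.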
# On the % scale 0 is the no-effect control and ±100 the full control effect; potency means the concentration at half of the fitted maximal effect.
Compound,"activity change, negative = inhibition",Potency
COc1ccc(C)cc1NC(=O)CC1COc2ccccc2O1 (stereo unspecified),inactive: 12.6%,
CC(C)C(=O)N1N=C(c2ccc(NS(C)(=O)=O)cc2)CC1c1cccs1 (stereo unspecified),,"inconclusive: 18.5 µM [inhibitor, single point]"
ONC(=Nc1ccc(Cl)cc1)c1ccccc1,inactive: 55.4%,
O=C(CN1CCN(c2ccccn2)CC1)Nc1nc2ccccc2s1,,"inconclusive: 16.5 µM [inhibitor, single point]"
CC1CCCC(C(=O)O)N1C(=O)CCSC(=O)c1ccccc1 (stereo unspecified),,"inconclusive: 3.29 µM [inhibitor, single point]"
Cc1cccc(Nc2nc(N)nc(CSc3nccc(C)n3)n2)c1,,"inconclusive: 10.4 µM [inhibitor, partial curve, poor fit]"
COCc1ccc(C(=O)N(C)CC2CCCN(CCc3ccc(OC)cc3)C2)o1 (stereo unspecified),,"inconclusive: 18.5 µM [inhibitor, single point]"
CCCn1nnnc1NC(=O)c1cccs1,,"inconclusive: 13.1 µM [inhibitor, single point]"
Cc1c(C)n(C)c2ccc(C(=O)NCCCN3CCCCC3C)cc12 (stereo unspecified),,active: 6.57 µM
CCCC(C)NC(=O)COc1ccc(S(=O)(=O)c2ccc(OCC(=O)NC(C)CCC)cc2)cc1 (stereo unspecified),,"inconclusive: 2.62 µM [inhibitor, full curve]"
Cc1ccc(NC(=O)N2Cc3ccccc3CC2C(=O)NC(C)(C)C)cc1 (stereo unspecified),,"inconclusive: 0.0828 µM [inhibitor, full curve, poor fit]"
CC(C)n1nnnc1SCC(=O)NC1CCCC1,,active: 5.22 µM
CN(C)C(CNC(=O)c1ccc(C2SCCS2)cc1)c1ccccc1 (stereo unspecified),inactive: 12.6%,
Cc1cccc(N2CCN(C(=O)c3ccccc3SCC(=O)N3CCCC3)CC2)c1C,,"inconclusive: 11.7 µM [inhibitor, single point]"
CC(NC(=S)Nc1ccc(S(N)(=O)=O)cc1)c1ccc2c(c1)OCO2 (stereo unspecified),,active: 4.65 µM
CCN(C(=O)Cn1c(=O)oc2ccccc21)c1ccc(C)c(C)c1,inactive: 25.2%,
Brc1ccc2c(c1)OCCOCCOCCOCCOCCOCCO2,inactive: 42.7%,
CC(C)C(=O)c1cn(CC(=O)NCc2ccc3c(c2)OCO3)c2ccccc12,inactive: -18.3%,
Cc1ccc(OCCN2C(=O)OC(C)(C)C2(C)O)cc1 (stereo unspecified),,"inconclusive: 13.1 µM [inhibitor, partial curve, poor fit]"
CN(C)CCc1nc2ccccc2c(=O)n1-c1ccccc1,,"inconclusive: 11.7 µM [inhibitor, partial curve]"
Cc1cccc(N2CCN(C(=O)COc3ccc4c(C)cc(=O)oc4c3C)CC2)c1C,,"inconclusive: 18.5 µM [inhibitor, single point]"

# Two entries drawn at random from the list so far, as already listed:
Compound,"activity change, negative = inhibition",Potency
Cc1cccc(N2CCN(C(=O)c3ccccc3SCC(=O)N3CCCC3)CC2)c1C,,"inconclusive: 11.7 µM [inhibitor, single point]"
Brc1ccc2c(c1)OCCOCCOCCOCCOCCOCCO2,inactive: 42.7%,
